PubChem BioAssay AID1671195, Yale University | 2021

Test: 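Regulators of LDL receptor activity judged by labelled LDL uptake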 (primary screen)
Cell system: human Huh7 hepatoma cells
Reagents: siRNA pool against human genes, 18 nM
Time to read-out: about 2 to 2.5 days of knockdown, then 8 h LDL uptake
Conditions: DiI-labelled LDL at 30 µg/ml for 8 h, in lipoprotein-deficient serum medium
Measurement: 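Fluorescent LDL signal imaged in cells, scaled to the plate median, robust z-score for each replicate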
Scale: robust z-score: higher = more LDL uptake after knockdown
Hit rule: 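a gene counts as active if at least two replicate z-scores exceed ±2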
The whole screen tested about 22,000 reagents; this is a part drawn at random. Over the whole deposit, about 1,510 (6.9%) are marked active. 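Active includes knockdowns raising or lowering LDL uptake; positive z-scores mean more uptake, negative mean less.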 Entries without a mark were called inactive. Reagents against one gene are numbered here.

The first 4 entries, ahead of the listing:
no.	gene symbol	pool no.	robust z-score, replicate 1	robust z-score, replicate 2	robust z-score, replicate 3
1	METRN	1	-1.33	-1.6	-1.1
2	ARPP21	1	0.12	0.249	0.0438
3	ARPP21	2	0.246	-0.126	-0.827
4	TMEM68	1	-0.409	0.162	0.273

The list itself, from the start:
no.	gene symbol	pool no.	robust z-score, replicate 1	robust z-score, replicate 2	robust z-score, replicate 3
1	METRN	1	-1.33	-1.6	-1.1
2	ARPP21	1	0.12	0.249	0.0438
3	ARPP21	2	0.246	-0.126	-0.827
4	TMEM68	1	-0.409	0.162	0.273
5	LOC440742	1	0.056	0.69	-0.511
6	SPRING1	1	0.598	1.45	0.787
7	NRIP3	1	-0.991	-0.229	0.0852
8	ANP32CP	1	-0.115	0.158	-0.362
9	ATP1A1	1	2.12	1.45	0.969
10	S100A6	1	-1.12	0.434	-0.0944
11	C17orf75	1	1.29	1.87	1.38
12	PTH	1	1.88	1.96	1.89
13	LOC441497 (retired record)	1	0.334	0.245	0.000324
14	PTGR1	1	0.0486	0.196	0.0862
15	NGRNP1	1	-1.14	-0.686	-0.985
16	NIPA1	1	-0.168	-0.329	-1.12
17	POM121L12	1	1.59	1.52	1.71
18	NIFK	1	1.15	1.05	1.16
19	TAL1	1	-0.914	1.07	-0.37
20	OTOG	1	-0.842	-0.044	0.0522
21	OR10X1	1	-1.05	-1.26	-0.433
22	SCGB1D2	1	-1.28	-1.87	-0.719
23	LOC388171 (retired record)	1	-0.569	-0.302	0.217
24	WRAP53	1	-1.34	0.46	-0.597
25	TEAD2	1	1.33	1.17	1.4
26	CLPX	1	-0.784	-0.522	-0.737
27	LOC400729 (retired record)	1	-0.0477	-1.47	-0.548
28	ATAD1	1	2.32 (active)	2.5	3.03
29	CCNB3	1	0.941	0.923	1.43
30	LOC389338 (retired record)	1	-0.634	-0.726	-0.438
31	OR5H14	1	0.907	-0.216	-0.0433
32	PPAT	1	-0.305	-0.395	-0.398
33	GDF15	1	-0.324	1.41	0.529
34	LOC391733 (retired record)	1	-0.236	-0.64	-0.0701
35	CYP46A1	1	-0.539	-0.783	-1.07
36	ASF1A	1	2.57 (active)	3.07	1.62
37	NEK2	1	-0.614	-1.01	-0.561
38	APLP1	1	-0.664	-0.125	-0.294
39	SKP2	1	-1.36	-0.981	-1.49
40	SPATC1L	1	0.547	0.883	0.219
41	MAGI2	1	-0.599	-0.236	0.443
42	SUSD2	1	-0.843	0.286	0.229
43	KMT5C	1	0.48	0.973	0.163
44	GUF1	1	-0.316	-0.424	0.0329
45	REXO6P	1	3.35 (active)	3.08	2.63
46	DUOXA2	1	-0.57	0.0341	0.449
47	HIF1A	1	0.305	1.6	0.0455
48	POGLUT2	1	-0.356	-0.526	-0.107
49	ST14	1	-1.73	-0.746	-1.71
50	PAGE4	1	1.35	-0.461	0.116
51	MASP1	1	0.452	0.416	0.813
52	LGALS13	1	1.09	-0.112	0.44
53	CFC1	1	0.702	2.08	-0.387
54	TMEM42	1	0.855	-0.586	0.571
55	PDE6D	1	-0.954	-0.154	-0.692
56	MYNN	1	-0.156	-1.58	-0.211
57	TMEM267	1	-0.779	-1.04	-0.7
58	ELF5	1	-0.391	2.33	0.775
59	SYT9	1	0.947	0.394	0.00519
60	PRKG1	1	-0.27	0.0316	0.779
61	SLC22A20P	1	-0.695	-0.263	-0.593
62	SLC22A20P	2	-0.458	-0.434	-0.855
63	SEC14L2	1	-0.471	0.704	-0.916
64	SYCN	1	0.73	0.911	1.08
65	EI24	1	0.747	-0.277	-0.0369
66	ACTR3BP2	1	1.73	1.72	2.13
67	RSPH14	1	-0.603	0.664	-0.209
68	FBXL8	1	0.624	0.0549	0.557
